Measurements taken from patent publication US20250163016A1, “PYRIDINE DERIVATIVE, PREPARATION METHOD THEREFOR AND USE THEREOF” (CHENGDU EASTON BIOPHARMACEUTICALS CO., LTD., priority 2022, published 2025).
Some of these results come from one statement about several compounds together.

Tested on: Kasumi-1 cell subcutaneous heterograft tumor
Test: In-vivo efficacy in Kasumi-1 cell subcutaneous heterograft tumor model
Conditions: Kasumi-1 xenograft
Experimental: • RPMI 1640 culture medium containing 20% fetal bovine serum (FBS), 37° C., 5% CO2.
• Solvent: 0.5% methylcellulose aqueous solution; • Tested drug: compounds 16 and 36.
CB17 SCID mice, female, 6-8 weeks, weight about 18-22 grams, and each mouse was subcutaneously inoculated with 0.1 mL (1×10^7 cells+matrigel) of Kasumi-1 cells on the right side. When an average volume of tumors reached 100-200 cubic millimeters, group administration was performed, see the table below (Table 12) for administration dosages and methods. The tumor volume was measured twice a week, the weights of the mice as well as lengths and widths of tumors were recorded in each time of measurement, and the tumor volume=length×width×width/2 mm^3. When the average tumor volume of a solvent group grew to 3000 cubic millimeters or above, administration was ended, each group of mice was killed and dissected to take out tumor lumps, the tumor weight of each mouse was weighed and the tumor volume was measured, and an average tumor volume difference between a tested compound group and the solvent group was obtained via comparison. The tumor suppression effects of the compounds were evaluated with TGI (%), which could reflect a tumor growth inhibition rate. […]

CC(C)(O)Cn1ncc2cc(-c3c(C#N)cc(N4CCC(N)CC4)nc3-c3ccc(C#N)c(F)c3)c(F)cc21 [Compound 16, 6-(4-aminopiperid-1-yl)-2-(4-cyano-3-fluorophenyl)-3-(6-fluoro-1-(2-hydroxyl-2-methylpropyl)-1H-indazol-5-yl)isonicotinonitrile]
TGI (tumor suppression effect, text): > 60%

CC(C)(O)Cn1nc(F)c2cc(-c3c(C#N)cc(N4CCC(N)CC4)nc3-c3ccc(C#N)c(F)c3)c(F)cc21 [Compound 36, 6-(4-aminopiperid-1-yl)-2-(4-cyano-3-fluorophenyl)-3-(3,6-difluoro-1-(2-hydroxyl-2-methylpropyl)-1H-indazol-5-yl)isonicotinonitrile]
TGI (tumor suppression effect, text): > 60%
